Results published in article PMC4884081.
These are yes or no findings as the source states them, for the method shown. For some assays here: Binding seen in cells or lysates may run through a third protein. Some binding calls cover weakened binding; strength is not graded here. Sequences can lack the tags named with a protein.

Chains of the proteins cited; added tags and fusions are not shown. Lines headed by an entry give the natural chain unless they say otherwise; changes in a name come on top.
UniProt P10071: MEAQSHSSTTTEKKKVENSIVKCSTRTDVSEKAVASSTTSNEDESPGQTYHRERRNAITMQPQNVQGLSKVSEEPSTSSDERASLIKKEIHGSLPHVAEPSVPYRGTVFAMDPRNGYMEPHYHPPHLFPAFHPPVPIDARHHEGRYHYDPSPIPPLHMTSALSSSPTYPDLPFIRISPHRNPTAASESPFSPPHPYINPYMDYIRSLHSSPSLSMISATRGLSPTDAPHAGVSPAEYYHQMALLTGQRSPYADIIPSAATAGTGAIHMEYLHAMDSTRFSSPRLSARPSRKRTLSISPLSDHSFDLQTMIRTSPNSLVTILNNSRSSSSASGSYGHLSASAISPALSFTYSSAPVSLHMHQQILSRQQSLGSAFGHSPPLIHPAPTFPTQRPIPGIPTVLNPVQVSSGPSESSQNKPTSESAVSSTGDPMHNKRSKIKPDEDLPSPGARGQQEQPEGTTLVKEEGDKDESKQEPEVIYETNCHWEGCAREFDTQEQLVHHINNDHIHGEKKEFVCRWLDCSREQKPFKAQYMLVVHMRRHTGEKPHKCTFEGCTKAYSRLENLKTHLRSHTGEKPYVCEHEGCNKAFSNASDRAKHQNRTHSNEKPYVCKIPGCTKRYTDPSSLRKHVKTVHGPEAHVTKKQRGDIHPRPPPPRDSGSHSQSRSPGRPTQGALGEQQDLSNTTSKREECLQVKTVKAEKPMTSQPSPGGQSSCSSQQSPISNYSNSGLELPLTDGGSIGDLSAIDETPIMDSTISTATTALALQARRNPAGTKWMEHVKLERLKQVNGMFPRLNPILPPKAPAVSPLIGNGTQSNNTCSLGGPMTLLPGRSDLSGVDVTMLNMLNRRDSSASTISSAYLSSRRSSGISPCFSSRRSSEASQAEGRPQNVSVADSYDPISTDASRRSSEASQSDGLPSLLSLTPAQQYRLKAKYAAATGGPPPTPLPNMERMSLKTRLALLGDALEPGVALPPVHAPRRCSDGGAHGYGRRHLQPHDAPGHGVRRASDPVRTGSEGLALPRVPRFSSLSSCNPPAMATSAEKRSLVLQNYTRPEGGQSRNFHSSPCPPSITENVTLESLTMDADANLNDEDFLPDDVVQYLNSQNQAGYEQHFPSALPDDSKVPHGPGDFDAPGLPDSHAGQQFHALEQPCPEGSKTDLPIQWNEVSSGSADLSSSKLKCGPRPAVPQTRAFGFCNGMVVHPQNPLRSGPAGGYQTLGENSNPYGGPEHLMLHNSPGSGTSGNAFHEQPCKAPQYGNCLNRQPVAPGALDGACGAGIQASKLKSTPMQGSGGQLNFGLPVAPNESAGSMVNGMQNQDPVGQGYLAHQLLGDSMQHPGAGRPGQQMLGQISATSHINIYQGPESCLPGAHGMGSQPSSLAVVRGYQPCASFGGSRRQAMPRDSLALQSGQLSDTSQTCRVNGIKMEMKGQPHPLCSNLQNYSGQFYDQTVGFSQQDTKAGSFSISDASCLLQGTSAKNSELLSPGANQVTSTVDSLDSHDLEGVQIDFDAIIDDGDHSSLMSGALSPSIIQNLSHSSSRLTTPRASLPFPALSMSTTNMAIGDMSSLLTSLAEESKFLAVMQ

Legend:
GST-Set7 [1] = target: T1, GST-Set7 (UniProt Q8WTS6); assay: pull-down; GST-Set7 as bait with MBP-tagged Gli3 truncated fragments (MBP-K436, MBP-K595); proteins expressed in E. coli; both purified
T1 sequence: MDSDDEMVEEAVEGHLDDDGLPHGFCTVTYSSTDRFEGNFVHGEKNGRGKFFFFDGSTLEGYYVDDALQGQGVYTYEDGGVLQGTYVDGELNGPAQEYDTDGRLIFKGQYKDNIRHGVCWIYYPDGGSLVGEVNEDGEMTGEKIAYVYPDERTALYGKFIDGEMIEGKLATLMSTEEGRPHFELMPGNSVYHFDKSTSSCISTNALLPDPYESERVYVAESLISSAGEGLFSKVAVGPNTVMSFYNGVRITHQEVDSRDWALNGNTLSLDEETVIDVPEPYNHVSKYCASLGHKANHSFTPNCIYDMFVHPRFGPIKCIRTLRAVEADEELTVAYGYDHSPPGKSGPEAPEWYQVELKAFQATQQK

GST-Set7 [2] = target: T1, GST-Set7; assay: pull-down; GST-Set7 as bait; flag-Gli3 from NIH-3T3 cells in the presence of Shh; only the target purified

| binding (GST-Set7 [1]) | binding (GST-Set7 [2]) | Substance |
| --- | --- | --- |
| binds |  | MBP-K595 (amino acids from 464 to 666 of Gli3) (from UniProt P10071 464-666) (domain or fragment) |
|  | binds | flag-tagged Gli3 full-length (from UniProt P10071 1-1580) |
